Taken from: PubChem BioAssay AID504784 (Drosophila RNAi Screening Center, 2011)
Assay: 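Search for regulators of lipid droplet storage in oleate-fed fly cells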 (primary screen). System: Drosophila Kc167 embryonic cells. Reagents: long dsRNA against Drosophila genes, about 250 ng dsRNA per well. Timing: 4 days. Treatment: cells fed 400 µM oleic acid bound to BSA. Detection: 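Microscope images give a droplet-to-nucleus area ratio, taken as log and converted to a screen-wide B-score; higher values mean greater lipid storage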. Reading the numbers: droplet/nuclear area B-score: higher = more stored lipid (overstorage).
The screen tested about 17,000 reagents; below is an unselected part of those with a known target gene and a result. 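Each column is one replicate's B-score; the combined score over replicates was not deposited, so single values may mislead.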 A plus sign joins genes that one reagent is predicted to hit.

Target gene,dsRNA,"droplet/nuclear area B-score, replicate 1","droplet/nuclear area B-score, replicate 2","droplet/nuclear area B-score, replicate 3"
CG18809,DRSC19818,-0.99,-2.3,
AOX4 (Aldehyde oxidase 4),DRSC15337,1.29,0.745,
CG31360,DRSC13255,0.543,2.59,
CG13306,DRSC09976,0.441,-1.07,
"SdhD (Succinate dehydrogenase, subunit D)",DRSC14215,-0.721,0.701,
Sema2b (Semaphorin 2b),DRSC05609,-0.809,-0.602,
Sema2b (Semaphorin 2b),DRSC06867,-0.24,-1.46,
CG14073,DRSC10078,0.654,-0.314,
ZnT77C (Zinc transporter 77C),DRSC11766,0.828,0.311,
ZnT77C (Zinc transporter 77C),DRSC11767,1.65,0.131,
Toll-6,DRSC11304,1.47,4.3,
robl62A,DRSC08153,-1.12,-0.212,
CG11007,DRSC06023,,-0.457,
Dyb (Dystrobrevin),DRSC07208,0.0229,-1.95,-0.255
Dyb (Dystrobrevin),DRSC22862,3.85,0.168,
Mob3 (MOB kinase activator 3),DRSC02791,-3.54,-1.09,
Npl4 (Nuclear protein localization 4),DRSC15615,-0.65,,
Npl4 (Nuclear protein localization 4),DRSC15616,-0.139,-0.642,
Ide (Insulin degrading metalloproteinase),DRSC11867,-0.387,0.00709,-0.431
TpnC4 (Troponin C isoform 4),DRSC04856,0.105,0.421,
"Nsun2 (NOP2-Sun domain family, member 2)",DRSC18662,-0.012,-0.0865,0.785
sle + CG12592,DRSC21387,-0.125,-0.57,
"DCTN6-p27 (Dynactin 6, p27 subunit)",DRSC02609,2.15,-0.0586,-0.831
"DCTN6-p27 (Dynactin 6, p27 subunit)",DRSC22810,-0.0157,1.17,
CG30148,DRSC06391,0.571,0.0156,
Pten (Phosphatase and tensin homolog),DRSC03402,1.02,-0.264,
CG13310,DRSC09981,2.09,0.306,
CG15357,DRSC00387,0.144,1.54,
CG4631,DRSC02766,-0.155,-0.0419,-0.57
CG4631,DRSC22194,1.12,1.08,
ksh (kish),DRSC19554,-0.769,-1.75,
Cyp9c1 (Cytochrome P450 9c1),DRSC04607,0.757,1.79,
Dscam3 (Down syndrome cell adhesion molecule 3),DRSC14525,-1.47,0.322,
Dscam3 (Down syndrome cell adhesion molecule 3),DRSC16376,-1.7,-1.62,
CG33096,DRSC14440,0.194,-0.233,
CG14314,DRSC14793,-0.596,0.736,
CG12828,DRSC06177,-0.745,0.779,
CG18814,DRSC10347,-0.802,0.817,
CG15020,DRSC08474,-1.63,2.08,
Acsl (Acyl-CoA synthetase long-chain),DRSC07252,-3.29,-0.0886,
CG13364,DRSC17898,1.12,0.927,
CG13364,DRSC21263,1.1,1.75,
Rap2l (Ras-associated protein 2-like),DRSC04646,-0.619,0.56,
mys (myospheroid),DRSC18799,1.61,-0.103,
mod(mdg4) + pre-mod(mdg4)-U,DRSC13476,-0.918,-0.0143,
nompB (no mechanoreceptor potential B),DRSC03701,-1.55,0.268,
nompB (no mechanoreceptor potential B),DRSC03731,1.73,0.158,0.281
Hsl (Hormone-sensitive lipase),DRSC06028,-0.648,-0.395,
Mtpbeta (Mitochondrial trifunctional protein beta subunit),DRSC04663,0.578,4.14,

Records listed so far whose gene name begins with S or s (4):
Target gene,dsRNA,"droplet/nuclear area B-score, replicate 1","droplet/nuclear area B-score, replicate 2","droplet/nuclear area B-score, replicate 3"
"SdhD (Succinate dehydrogenase, subunit D)",DRSC14215,-0.721,0.701,
Sema2b (Semaphorin 2b),DRSC05609,-0.809,-0.602,
Sema2b (Semaphorin 2b),DRSC06867,-0.24,-1.46,
sle + CG12592,DRSC21387,-0.125,-0.57,

The list goes on:
Target gene,dsRNA,"droplet/nuclear area B-score, replicate 1","droplet/nuclear area B-score, replicate 2","droplet/nuclear area B-score, replicate 3"
CG31709,DRSC01081,-0.385,-0.105,
CG6707,DRSC10697,0.0908,0.125,
Cnx99A + Cnx14D,DRSC16610,-0.326,0.0579,
beta4GalT7 (beta-4-galactosyltransferase 7),DRSC14385,-0.166,0.0263,
CG14401,DRSC02385,0.249,-0.147,
CG14401,DRSC21710,-1.38,1.67,
Atox1 (Antioxidant 1 copper chaperone),DRSC22416,-1.19,-0.331,
CG11617,DRSC00321,-0.207,1.85,
CG11617,DRSC21786,-1.76,-2.49,
CG42541,DRSC17973,0.0405,1.22,
CG42541,DRSC18119,0.249,3.91,
CG42541,DRSC18120,-0.412,-0.176,
qua (quail),DRSC03598,-1.08,0.757,
CG31650,DRSC03140,-2.5,-3.89,1.18
LpR1 (Lipophorin receptor 1),DRSC15665,0.677,,
LpR1 (Lipophorin receptor 1),DRSC15669,-0.741,-0.00156,
LpR1 (Lipophorin receptor 1),DRSC15670,-0.126,-0.597,
CG6380,DRSC02950,-0.0364,-0.636,
CG15155,DRSC02456,0.203,-0.856,
CG14625,DRSC18633,-2.99,-0.737,
Nlg4 (Neuroligin 4),DRSC15108,-1.03,0.823,
Nlg4 (Neuroligin 4),DRSC15109,-0.0361,0.144,
Nlg4 (Neuroligin 4),DRSC15700,-1.11,-1.06,
Nlg4 (Neuroligin 4),DRSC15701,0.167,-1.37,
Nlg4 (Neuroligin 4),DRSC22243,0.937,0.0391,
CG4576,DRSC15604,0.109,0.11,
CG15537,DRSC15073,1.53,-2.73,
promL (prominin-like),DRSC08733,0.742,1.34,
CG15446,DRSC20518,1.04,-0.0395,
CG4456 + Hsp22,DRSC11187,1.16,1.46,
CG4456 + Hsp22,DRSC11192,0.555,-0.233,
VGAT (Vesicular GABA Transporter),DRSC07160,0.053,-1.08,
Dnaaf5 (Dynein axonemal assembly factor 5),DRSC13032,-0.00944,1.95,
CG34353,DRSC14493,-0.398,-2.82,
CG34353,DRSC14517,1.31,0.606,
CG34353,DRSC14563,0.453,0.566,
CG34353,DRSC15837,-0.0247,0.292,
CG34353,DRSC22429,0.474,0.068,
